These results are taken from publication PMC9902533.

For at least one entry, the source does not settle the construct or the ends of the probe.

The test system of data set [1] is Immunoglobulin E kappa (recombinant, clone AbD18705_hIgE, HCA190) (human). In words: microchip free-flow electrophoresis, single-molecule counting (DigitISA). As to conditions: 40 nM IgE, 50 pM aptamer, complex 21.7 pM; 10 mM HEPES pH 7.4, 0.05% Tween-20, room temperature (IgE; fibrils and exosomes same buffer); FUS: 50 mM Tris-HCl pH 7.4, 25 mM KCl, 0.02% Tween-20, on-chip desalting; commercial protein; label: 5'-Atto488; folded or branched DNA.

Data set [2] addresses alpha-synuclein fibrils (human) (UniProt P37840). In words: binding assay. The note with it: 10 mM HEPES pH 7.4, 0.05% Tween-20, room temperature (IgE; fibrils and exosomes same buffer); FUS: 50 mM Tris-HCl pH 7.4, 25 mM KCl, 0.02% Tween-20, on-chip desalting; recombinant protein; label: 5'-Alexa488; folded or branched DNA.
The target is the same in data set [3]. In words: microchip free-flow electrophoresis, single-molecule counting (DigitISA). The note with it: 10 nM aptamer, bound probe 18.7 pM; 10 mM HEPES pH 7.4, 0.05% Tween-20, room temperature (IgE; fibrils and exosomes same buffer); FUS: 50 mM Tris-HCl pH 7.4, 25 mM KCl, 0.02% Tween-20, on-chip desalting; recombinant protein; label: 5'-Alexa488; folded or branched DNA.

For data set [4], the target named is alpha-synuclein oligomers (human) (UniProt P37840). In words: binding assay. As to conditions: 10 mM HEPES pH 7.4, 0.05% Tween-20, room temperature (IgE; fibrils and exosomes same buffer); FUS: 50 mM Tris-HCl pH 7.4, 25 mM KCl, 0.02% Tween-20, on-chip desalting; recombinant protein; label: 5'-Alexa488; folded or branched DNA.

Turning to “TGGGGCACGTTTATCCGTCCCTCCTAGTGGCGTGCCCC [IgE aptamer]”, in data set [1], the binding result is “binds”.

Take “TTTTGCCTGTGGTGTTGGGGCGGGTGCG [T-SO508 aptamer]”: the binding result in data set [2] and in data set [3] was “binds” each time.

For “TTTTGGGTCGGCTGTCCGTGGGTGGGGA [T-SO606 aptamer]”, the binding result in data set [4] is recorded as “binds”.
